No constants are given. Whether binding was seen depends on the method and setting. In cells and extracts the contact can be indirect. Some results given as binding are weak or reduced against the parent protein; the word gives no strength. Each block holds one substance with its values, some of them ahead of it.
Assays:
Experiment in all cases: co-IP
[1] = biological target: HA-tagged full-length CARD8 E274R (interface I mutant) (human) (UniProt Q9Y2G2)
[2] = biological target: HA-tagged full-length CARD8 S297A (Tet-inducible, pInducer20) (human) (UniProt Q9Y2G2)
[3] = biological target: HA-tagged full-length CARD8, wild type (Tet-inducible, pInducer20) (human) (UniProt Q9Y2G2)
[4] = biological target: FLAG-tagged CARD8-CT (UbN-CARD8-CT, S297-L537) (human) (UniProt Q9Y2G2)
[5] = biological target: FLAG-tagged DPP9 (DPP9S), wild type (human) (UniProt Q86TI2)
[6] = biological target: FLAG-tagged CARD8-FIIND-S297A (human) (UniProt Q9Y2G2)
[7] = biological target: MYC-tagged CARD8-FIIND-S297A (human) (UniProt Q9Y2G2)

Protein sequences, listed by entry. Tags and fused reporters are not part of them. Lines headed by an entry give the natural chain unless they say otherwise; changes in a name come on top. Residues count along the entry.
UniProt Q9Y2G2, whole entry: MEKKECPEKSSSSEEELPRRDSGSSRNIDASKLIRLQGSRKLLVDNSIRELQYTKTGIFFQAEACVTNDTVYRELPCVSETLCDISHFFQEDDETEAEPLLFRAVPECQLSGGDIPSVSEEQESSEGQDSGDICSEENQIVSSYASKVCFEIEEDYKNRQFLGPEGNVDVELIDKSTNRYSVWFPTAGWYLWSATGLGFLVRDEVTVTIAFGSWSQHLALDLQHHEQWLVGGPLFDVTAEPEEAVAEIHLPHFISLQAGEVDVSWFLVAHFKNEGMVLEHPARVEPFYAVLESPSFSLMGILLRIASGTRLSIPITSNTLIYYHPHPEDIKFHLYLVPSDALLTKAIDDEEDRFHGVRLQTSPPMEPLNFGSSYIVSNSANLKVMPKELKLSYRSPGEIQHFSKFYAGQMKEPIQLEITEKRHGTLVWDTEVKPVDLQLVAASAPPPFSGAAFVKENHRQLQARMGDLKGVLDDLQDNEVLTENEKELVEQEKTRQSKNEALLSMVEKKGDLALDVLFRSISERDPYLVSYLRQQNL
UniProt Q9Y2G2, 297-537: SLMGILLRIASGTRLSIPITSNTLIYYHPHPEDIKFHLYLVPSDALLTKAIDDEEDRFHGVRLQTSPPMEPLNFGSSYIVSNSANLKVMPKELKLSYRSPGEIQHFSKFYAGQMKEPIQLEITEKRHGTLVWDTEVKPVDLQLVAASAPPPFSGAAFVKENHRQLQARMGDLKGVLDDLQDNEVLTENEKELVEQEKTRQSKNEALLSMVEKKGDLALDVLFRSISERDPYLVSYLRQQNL
UniProt Q86TI2, whole entry: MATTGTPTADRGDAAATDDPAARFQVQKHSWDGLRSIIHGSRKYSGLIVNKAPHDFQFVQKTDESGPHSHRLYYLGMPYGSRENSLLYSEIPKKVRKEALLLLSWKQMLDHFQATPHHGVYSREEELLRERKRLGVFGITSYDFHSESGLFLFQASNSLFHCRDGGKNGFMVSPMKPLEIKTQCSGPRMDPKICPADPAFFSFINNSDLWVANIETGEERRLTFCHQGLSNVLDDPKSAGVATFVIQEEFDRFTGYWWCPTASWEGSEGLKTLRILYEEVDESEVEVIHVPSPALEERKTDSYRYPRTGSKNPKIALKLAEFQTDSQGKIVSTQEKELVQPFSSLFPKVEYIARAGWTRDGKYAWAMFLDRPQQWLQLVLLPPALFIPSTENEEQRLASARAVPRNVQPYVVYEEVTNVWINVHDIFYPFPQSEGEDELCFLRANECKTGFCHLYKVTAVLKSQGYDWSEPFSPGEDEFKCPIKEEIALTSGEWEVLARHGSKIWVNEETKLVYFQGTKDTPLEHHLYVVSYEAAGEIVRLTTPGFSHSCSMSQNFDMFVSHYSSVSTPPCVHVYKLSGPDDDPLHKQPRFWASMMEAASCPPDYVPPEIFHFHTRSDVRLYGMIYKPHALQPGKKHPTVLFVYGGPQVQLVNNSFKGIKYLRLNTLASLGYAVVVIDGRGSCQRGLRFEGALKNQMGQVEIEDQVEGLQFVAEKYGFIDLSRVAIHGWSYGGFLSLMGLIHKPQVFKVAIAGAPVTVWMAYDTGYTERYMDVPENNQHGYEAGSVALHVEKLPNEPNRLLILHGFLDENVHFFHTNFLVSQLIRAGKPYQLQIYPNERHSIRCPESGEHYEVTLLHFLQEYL

Substance: DPP9, endogenous in THP-1 cells (from UniProt Q86TI2 1-863) (enzyme)
- binding [1]: no binding
- binding [2]: binds
- binding [3]: binds

Substance: MYC-tagged full-length CARD8 S297A (from UniProt Q9Y2G2-5 1-537)
- binding [5]: binds

Second part, the substance after the results:

- binding [4]: binds
Substance: MYC-tagged CARD8-FIIND-S297A (from UniProt Q9Y2G2-5 161-446) (domain or fragment)

- binding [5]: binds
Substance: His-tagged CARD8 (Figure 3B) (from UniProt Q9Y2G2-5 1-537)

- binding [6]: binds
- binding [7]: binds
Substance: DPP9, endogenous in HEK 293T cells (from UniProt Q86TI2 1-863) (enzyme)

— publication doi:10.1101/2021.01.13.426575
